# The list shows a part of the results.
# B1: Erv41-EDTA (Saccharomyces cerevisiae), Q04651 (protein)
# chain: MKFLVNVALVFMVVYISYIYAAAPEHHHHHHDYDIPTTENLYFQGAMGYIDQQYVVDSQVRDTVQINMDIYVNTKCDWLQINVRDQTMDRKLVLEELQLEEMPFFIPYDTKVNDINEIITPELDEILGEAIPAEFREKLDTRSFFDESDPNKAHLPEFNGCHVFGSIPVNRVSGELQITAKSLGYVASRKAPLEELKFNHVINEFSFGDFYPYIDNPLDNTAQFNQDEPLTTYVYYTSVVPTLFKKLGAEVDTNQYSVNDYRYLYKDVAAKGDKMPGIFFKYNFEPLSIVVSDVRL
# Assays:
# Test in all cases: glycan array binding signal (z-score within array); higher = stronger binding
# Conditions in all cases: glycan notation: IUPAC condensed, linker removed
# Fuc(a1-2)Gal = target: Fuc(a1-2)Gal
# Outline: (§1)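 Columns mapping to the same glycan were averaged after glycan names were converted to IUPAC-condensed notation. The data come from 3228 arrays in the Consortium for Functional Glycomics database, limited to those with an available protein sequence. Binding is reported as a within-array Z-score averaged across arrays of one protein sequence and across linkers.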
# Fuc(a1-2)Gal(b1-3)GalNAc = target: Fuc(a1-2)Gal(b1-3)GalNAc
# Outline: as §1
# [1] = target: Fuc(a1-2)Gal(b1-3)GalNAc(a1-3)[Fuc(a1-2)]Gal(b1-4)Glc
# Outline: as §1
# [2] = target: Fuc(a1-2)Gal(b1-3)GalNAc(a1-3)[Fuc(a1-2)]Gal(b1-4)GlcNAc
# Outline: as §1
# [3] = target: Fuc(a1-2)Gal(b1-3)GalNAc(b1-3)Gal
# Outline: as §1
# [4] = target: Fuc(a1-2)Gal(b1-3)GalNAc(b1-3)Gal(a1-4)Gal(b1-4)Glc
# Outline: as §1
# [5] = target: Fuc(a1-2)Gal(b1-3)GalNAc(b1-4)[Neu5Ac(a2-3)]Gal(b1-4)Glc
# Outline: as §1
# Fuc(a1-2)Gal(b1-3)GlcNAc = target: Fuc(a1-2)Gal(b1-3)GlcNAc
# Outline: as §1
# [6] = target: Fuc(a1-2)Gal(b1-3)GlcNAc(b1-2)Man(a1-3)[Fuc(a1-2)Gal(b1-3)GlcNAc(b1-2)Man(a1-6)]Man(b1-4)GlcNAc(b1-4)GlcNAc
# Outline: as §1
# [7] = target: Fuc(a1-2)Gal(b1-3)GlcNAc(b1-2)Man(a1-3)[Fuc(a1-2)Gal(b1-3)GlcNAc(b1-2)Man(a1-6)]Man(b1-4)GlcNAc(b1-4)[Fuc(a1-6)]GlcNAc
# Outline: as §1
# [8] = target: Fuc(a1-2)Gal(b1-3)GlcNAc(b1-3)Gal(b1-4)Glc
# Outline: as §1
# [9] = target: Fuc(a1-2)Gal(b1-3)GlcNAc(b1-3)GalNAc
# Outline: as §1
# [10] = target: Fuc(a1-2)Gal(b1-3)GlcNAc(b1-3)[Fuc(a1-2)Gal(b1-3)GlcNAc(b1-6)]GalNAc
# Outline: as §1
# [11] = target: Fuc(a1-2)Gal(b1-3)GlcNAc(b1-3)[Gal(b1-4)GlcNAc(b1-6)]Gal(b1-4)Glc
# Outline: as §1
# [12] = target: Fuc(a1-2)Gal(b1-3)GlcNAc(b1-3)[Neu5Ac(a2-6)Gal(b1-4)GlcNAc(b1-6)]Gal(b1-4)Glc
# Outline: as §1
# [13] = target: Fuc(a1-2)Gal(b1-3)GlcNAc6S
# Outline: as §1
# [14] = target: Fuc(a1-2)Gal(b1-3)[Fuc(a1-4)]GlcNAc
# Outline: as §1
# [15] = target: Fuc(a1-2)Gal(b1-3)[Fuc(a1-4)]GlcNAc(b1-2)Man(a1-3)[Fuc(a1-2)Gal(b1-3)[Fuc(a1-4)]GlcNAc(b1-2)Man(a1-3)]Man(b1-4)GlcNAc(b1-4)GlcNAc
# Outline: as §1
# [16] = target: Fuc(a1-2)Gal(b1-3)[Fuc(a1-4)]GlcNAc(b1-2)Man(a1-3)[Fuc(a1-2)Gal(b1-3)[Fuc(a1-4)]GlcNAc(b1-2)Man(a1-6)]Man(b1-4)GlcNAc(b1-4)[Fuc(a1-6)]GlcNAc(b1-4)[Fuc(a1-6)]GlcNAc
# Outline: as §1
# [17] = target: Fuc(a1-2)Gal(b1-3)[Fuc(a1-4)]GlcNAc(b1-3)[Fuc(a1-3)[Gal(b1-4)]GlcNAc(b1-6)]Gal(b1-4)Glc
# Outline: as §1
# [18] = target: Fuc(a1-2)Gal(b1-3)[Fuc(a1-4)]GlcNAc(b1-3)[Gal(b1-4)GlcNAc(b1-6)]Gal(b1-4)Glc
# Outline: as §1
# [19] = target: Fuc(a1-2)Gal(b1-4)Fuc(a1-3)]GlcNAc(b1-2)Man(a1-3)[Fuc(a1-2)Gal(b1-4)[Fuc(a1-3)]GlcNAc(b1-2)Man(a1-6)]Man(b1-4)GlcNAc(b1-4)GlcNAc
# Outline: as §1
# Fuc(a1-2)Gal(b1-4)Glc = target: Fuc(a1-2)Gal(b1-4)Glc
# Outline: as §1
# Fuc(a1-2)Gal(b1-4)Glc6S = target: Fuc(a1-2)Gal(b1-4)Glc6S
# Outline: as §1
# Fuc(a1-2)Gal(b1-4)GlcNAc = target: Fuc(a1-2)Gal(b1-4)GlcNAc
# Outline: as §1
# [20] = target: Fuc(a1-2)Gal(b1-4)GlcNAc(b1-2)Man
# Outline: as §1
# [21] = target: Fuc(a1-2)Gal(b1-4)GlcNAc(b1-2)Man(a1-3)[Fuc(a1-2)Gal(b1-4)GlcNAc(b1-2)Man(a1-6)]Man(b1-4)GlcNAc(b1-4)GlcNAc
# Outline: as §1
# [22] = target: Fuc(a1-2)Gal(b1-4)GlcNAc(b1-2)Man(a1-3)[Fuc(a1-2)Gal(b1-4)GlcNAc(b1-2)Man(a1-6)]Man(b1-4)GlcNAc(b1-4)[Fuc(a1-6)]GlcNAc
# Outline: as §1
# [23] = target: Fuc(a1-2)Gal(b1-4)GlcNAc(b1-2)[Fuc(a1-2)Gal(b1-4)GlcNAc(b1-4)]Man(a1-3)[Fuc(a1-2)Gal(b1-4)GlcNAc(b1-2)Man(a1-6)]Man(b1-4)GlcNAc(b1-4)GlcNAc
# Outline: as §1
# [24] = target: Fuc(a1-2)Gal(b1-4)GlcNAc(b1-3)Gal(b1-4)GlcNAc
# Outline: as §1
binder,measurement,setting,value
B1,glycan array binding signal (z-score),Fuc(a1-2)Gal,-0.921
same,glycan array binding signal (z-score),Fuc(a1-2)Gal(b1-3)GalNAc,-0.47
same,glycan array binding signal (z-score),[1],-0.044
same,glycan array binding signal (z-score),[2],-0.603
same,glycan array binding signal (z-score),[3],-0.593
same,glycan array binding signal (z-score),[4],0.909
same,glycan array binding signal (z-score),[5],-0.192
same,glycan array binding signal (z-score),Fuc(a1-2)Gal(b1-3)GlcNAc,-0.388
same,glycan array binding signal (z-score),[6],0.618
same,glycan array binding signal (z-score),[7],0.202
same,glycan array binding signal (z-score),[8],0.109
same,glycan array binding signal (z-score),[9],-0.786
same,glycan array binding signal (z-score),[10],2.18
same,glycan array binding signal (z-score),[11],-0.334
same,glycan array binding signal (z-score),[12],-1.18
same,glycan array binding signal (z-score),[13],0.584
same,glycan array binding signal (z-score),[14],0.164
same,glycan array binding signal (z-score),[15],0.012
same,glycan array binding signal (z-score),[16],0.182
same,glycan array binding signal (z-score),[17],-0.124
same,glycan array binding signal (z-score),[18],0.105
same,glycan array binding signal (z-score),[19],1.78
same,glycan array binding signal (z-score),Fuc(a1-2)Gal(b1-4)Glc,-0.955
same,glycan array binding signal (z-score),Fuc(a1-2)Gal(b1-4)Glc6S,0.332
same,glycan array binding signal (z-score),Fuc(a1-2)Gal(b1-4)GlcNAc,-0.226
same,glycan array binding signal (z-score),[20],-0.288
same,glycan array binding signal (z-score),[21],0.143
same,glycan array binding signal (z-score),[22],-0.216
same,glycan array binding signal (z-score),[23],0.382
same,glycan array binding signal (z-score),[24],-0.317

# In a second layout: entries from further up
binder | measurement | setting | value
B1 | glycan array binding signal (z-score) | [1] | -0.044
same | glycan array binding signal (z-score) | Fuc(a1-2)Gal(b1-4)GlcNAc | -0.226
